Experimental data from publication PMC7819943, “Rice protein-binding microarrays: a tool to detect cis-acting elements near promoter regions in rice”.
Some of the results follow.

The sequences below were run against T1, OsSMF1 (Oryza sativa, UniProt Q6ZLB0 1-436) (assay: protein-binding microarray (RPBM); PBS, 2% BSA, 51.3 ng/ul salmon testes DNA, 50 uM zinc acetate, 200 nM TF, 25 C, 1 h; high values mean tight binding). Conditions: protein: recombinant; tags: N-terminal polyhistidine and DsRed monomer fusion (pET32a); chain copies: 2; label: CyDye5-dUTP incorporated in the synthesized complementary strand; 3' TTTTT single-stranded linker to array surface; dsDNA, one strand shown.
T1 sequence: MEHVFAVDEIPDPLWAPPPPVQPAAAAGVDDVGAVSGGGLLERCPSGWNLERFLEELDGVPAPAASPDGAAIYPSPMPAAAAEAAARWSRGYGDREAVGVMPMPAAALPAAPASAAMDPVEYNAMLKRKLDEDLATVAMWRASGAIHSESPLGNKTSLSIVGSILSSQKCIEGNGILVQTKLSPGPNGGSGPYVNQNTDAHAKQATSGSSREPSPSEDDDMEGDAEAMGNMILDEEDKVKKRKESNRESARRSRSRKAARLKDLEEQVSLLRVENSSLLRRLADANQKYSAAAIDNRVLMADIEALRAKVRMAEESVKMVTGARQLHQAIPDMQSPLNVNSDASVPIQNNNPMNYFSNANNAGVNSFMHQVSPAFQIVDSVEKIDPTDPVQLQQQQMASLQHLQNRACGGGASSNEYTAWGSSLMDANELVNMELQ
Method in brief: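 Using Ni–NTA, transcription factors fused N-terminally to polyhistidine and DsRed were purified after expression in E. coli BL21-CodonPlus. These were incubated at 200 nM with a blocked, double-stranded custom Agilent array for 1 h at 25 °C in a buffer containing 50 µM zinc acetate, and the array was washed. The binding signal is per-feature fluorescence intensity (arbitrary units) on an Axon 4000B scanner.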

Sequence	binding signal
CTTTGCTCGGAAGTCTGTCTATGTCATCTTGATGAACCCTCGGAGTCACCTAGTGCAG	4830 fluorescence intensity (a.u.)
TTAAATTTAGGACCGAATTACACGTACGTCAGGCGCGCTCCGGAGTCACCTAGTGCAG	4300 fluorescence intensity (a.u.)
ACCACCACCTCGAAGGTCTTGAGCTCCATCTCCGGCGACGCGGAGTCACCTAGTGCAG	11200 fluorescence intensity (a.u.)
TTGTGAGTTGGCCTTTTGTGACTGTAAATTTTCCAGGTGACGGAGTCACCTAGTGCAG	4170 fluorescence intensity (a.u.)
GGATTTGGCCATTTCTTGCCTCGTGTCGTTGGCAGAGACCCGGAGTCACCTAGTGCAG	3950 fluorescence intensity (a.u.)
ATTTTGATATTGGCTAAATCATCACGTGTCGACATGTATGCGGAGTCACCTAGTGCAG	6620 fluorescence intensity (a.u.)
TTTCTAAGACATTTGTGCCACTTGGCATGAATCTAATTTACGGAGTCACCTAGTGCAG	3780 fluorescence intensity (a.u.)
TCAGTCAATCTGGACCGTCCACGTGTACGTTTTCTCCTCTCGGAGTCACCTAGTGCAG	13600 fluorescence intensity (a.u.)
CTAAATGAACTGATATATCGCTGACTTGGTTTCCATGCAGCGGAGTCACCTAGTGCAG	4860 fluorescence intensity (a.u.)
ACTAATTGTGGCCATGTTCATCGTGCAGTTCCTTGGATCTCGGAGTCACCTAGTGCAG	17300 fluorescence intensity (a.u.)
TTTCCGTCACCTTAGTGAAGATGGTAGTGCCTCTCATCCACGGAGTCACCTAGTGCAG	3300 fluorescence intensity (a.u.)
AGTATGCCACCGCGTATACTCGCGTCACCCGGCTGTAACGCGGAGTCACCTAGTGCAG	5600 fluorescence intensity (a.u.)
CGGTCAATATCGCCACGTAGGCGGCCACGTCCGTGAAACCCGGAGTCACCTAGTGCAG	14000 fluorescence intensity (a.u.)
GAAACCTGATGATGCTTGATGGAAATCCATTAGACAGCGTCGGAGTCACCTAGTGCAG	4580 fluorescence intensity (a.u.)
CCACCACCGCGCCACCATGGGCGCCGCCACCGCCCAGCCGCGGAGTCACCTAGTGCAG	3250 fluorescence intensity (a.u.)
GTAGTTGTTGTACGTTGATTTCAGGAAGCTGCGTGCACGACGGAGTCACCTAGTGCAG	12700 fluorescence intensity (a.u.)
CACTGTCTCACATGAACCCACTAATACGTGGGTCTCACTACGGAGTCACCTAGTGCAG	3780 fluorescence intensity (a.u.)
CGACGTCGATGACGACTTCTATTTCTCTCGTGCCCTTCTCCGGAGTCACCTAGTGCAG	4990 fluorescence intensity (a.u.)
TCTCGTTTCCTTGCACGTAAGCCGCGCCCTTTTGCCTTGCCGGAGTCACCTAGTGCAG	3400 fluorescence intensity (a.u.)
TATAATAGTAGGTTATAAGCCGGCTAAATGCTGAGTTGGACGGAGTCACCTAGTGCAG	6560 fluorescence intensity (a.u.)
CTTCAGGGTCTAGTCTTTTCAAACCATCGGAGTTATCGTCCGGAGTCACCTAGTGCAG	3530 fluorescence intensity (a.u.)

Sequence	binding signal
AGCAGCTTGTATGAGCTCTGCATCGGAAGCCACTCGTCGACGGAGTCACCTAGTGCAG	5540 fluorescence intensity (a.u.)
CCTAATTATCTTAGTAATCACCTTTCTTAGTCACCGGCAACGGAGTCACCTAGTGCAG	4200 fluorescence intensity (a.u.)
TTATTTTCCTGCTAAAATTGCCACGTAGGACGGTTGTGCTCGGAGTCACCTAGTGCAG	19000 fluorescence intensity (a.u.)
TTTGGATTCTATCTATTTCTGTGTCATCAGATGCACACCGCGGAGTCACCTAGTGCAG	7520 fluorescence intensity (a.u.)
GTGAGATTTGTTGCAACATACTGTGGCCCACTTGTCAGATCGGAGTCACCTAGTGCAG	3700 fluorescence intensity (a.u.)
GATACGCGGCGGCTGAGTCAGCGTGGGACCCACGTGGGCCCGGAGTCACCTAGTGCAG	13000 fluorescence intensity (a.u.)
TCGTGGCCGTCCGATGCGTATAAATCGACGCCTCCATCTCCGGAGTCACCTAGTGCAG	32500 fluorescence intensity (a.u.)
GTAAAGGGTACCAAGCCCACAGTGGGCGTGACCCTAGCTTCGGAGTCACCTAGTGCAG	3220 fluorescence intensity (a.u.)
TCCGAAAGGAGCAGCCTCCACATCAACCGCCTCTCTCATTCGGAGTCACCTAGTGCAG	3720 fluorescence intensity (a.u.)
TACACCAGCGATGGTTACTAGCATTCAGAGAAACACCACACGGAGTCACCTAGTGCAG	30300 fluorescence intensity (a.u.)
TTAGTCGCAAACTAAAATAAAGATGATGTCATTGACCATACGGAGTCACCTAGTGCAG	10800 fluorescence intensity (a.u.)
TCCATTTCTGAGCTCTTCTAGTTTGAGTGAGAGAGCAGCACGGAGTCACCTAGTGCAG	22800 fluorescence intensity (a.u.)
AAGGTGATCAGGAAAAGCAACATTGCAATGCAGAAATGCACGGAGTCACCTAGTGCAG	34600 fluorescence intensity (a.u.)
TTCGCTGCTCGGCCTGGCTCGACTGATGTACACCGCTGCACGGAGTCACCTAGTGCAG	3590 fluorescence intensity (a.u.)
GCAAACCCCATCCATTTTGAAACGAAAGCTGACAAGTGAACGGAGTCACCTAGTGCAG	3220 fluorescence intensity (a.u.)
ATTATTAAAATATATAAATATTGAATTTAATAAAATAATTCGGAGTCACCTAGTGCAG	26400 fluorescence intensity (a.u.)
ATGTGGCTAGAGTTGGGGTTTAGTGTCAGTTGTTAGGGATCGGAGTCACCTAGTGCAG	3310 fluorescence intensity (a.u.)
GATTCTTCTATGTGGCATGAGGTAACCCTGGGTCGGCTTGCGGAGTCACCTAGTGCAG	4110 fluorescence intensity (a.u.)
TTGTTCTACCACGTGTCCTATCCTCCTCCTCCCAACATCGCGGAGTCACCTAGTGCAG	16900 fluorescence intensity (a.u.)
ATACATATAGCCACATCATATTTATGCTTATGTGGAGGAGCGGAGTCACCTAGTGCAG	8400 fluorescence intensity (a.u.)
CTTTGGTCGTATACGTAATACGAACGTGGATACGCCTCCACGGAGTCACCTAGTGCAG	6020 fluorescence intensity (a.u.)

2 entries from above, comma-delimited:
Sequence,binding signal
TTTGGATTCTATCTATTTCTGTGTCATCAGATGCACACCGCGGAGTCACCTAGTGCAG,7520 fluorescence intensity (a.u.)
TTGTTCTACCACGTGTCCTATCCTCCTCCTCCCAACATCGCGGAGTCACCTAGTGCAG,16900 fluorescence intensity (a.u.)
